Measurements reported in PMC4919782.

Tests used:
[1] = molecular target: T1, C/EBPβ (pig (Yorkshire piglet)) (UniProt E5Q8C6); assay: EMSA; settings: no shift bands, Binding buffer 20 mM Tris-Cl pH 7.6, 50 mM KCl, 0.5 mM EDTA, 10% glycerol, 1 mM DTT (2 µl in 10 µl reaction), antibody preincubation 1 h at 4 °C, protein in an extract, label: biotin-dUTP
T1 sequence (looked up, limits assumed): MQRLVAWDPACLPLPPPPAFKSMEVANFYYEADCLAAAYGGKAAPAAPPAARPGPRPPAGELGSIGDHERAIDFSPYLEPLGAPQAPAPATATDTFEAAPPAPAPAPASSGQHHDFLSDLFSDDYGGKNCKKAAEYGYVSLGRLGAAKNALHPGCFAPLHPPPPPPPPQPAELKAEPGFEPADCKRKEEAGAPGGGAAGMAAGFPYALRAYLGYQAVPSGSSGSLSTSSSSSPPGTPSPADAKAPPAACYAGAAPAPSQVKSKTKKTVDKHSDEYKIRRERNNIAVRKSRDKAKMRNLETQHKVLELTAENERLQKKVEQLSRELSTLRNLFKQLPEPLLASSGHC

[2] = molecular target: T1, C/EBPβ (pig (Yorkshire piglet)); assay: EMSA supershift; settings: C/EBPβ antibody, lane 5; Binding buffer 20 mM Tris-Cl pH 7.6, 50 mM KCl, 0.5 mM EDTA, 10% glycerol, 1 mM DTT (2 µl in 10 µl reaction); antibody preincubation 1 h at 4 °C; protein in an extract; label: biotin-dUTP

“AACCCACAACCTCATGGTTC (double strand) [BPI wt probe, methylated]”: no binding ([1]; lanes 1-3, treated with CpG methyltransferase M.SssI, methylated positions not stated (printed probe contains no CpG; paper attributes effect to non-CpG mC-15)).
“AACCCACAACCTCATGGTTC (double strand) [BPI wt probe, unmethylated]”: binds [2].
“AACCGACTAGTCTATGGTTC (double strand) [BPI mut probe]”: no binding ([1]; lanes 7-10, M.SssI treatment state per lane not stated).

Construct, isoform or probe ends are uncertain for at least one entry. At least one result comes from cells or an extract, where the contact may be indirect. For part of these data: No signal at the amounts used counts as a negative. Protein sequences can lack the tags named with them.
